{"source": "PubChem BioAssay AID1347076", "about": "(National Center for Advancing Translational Sciences (NCATS), 2019)", "note": "Out of some 400,000 compounds screened, about 13,000 (3.2%) were called active. Inconclusive results, whose numbers are uncertain, are shown with a selection of clear calls. The call rests on the fitted dose curve; in most records, active means well fitted cell-killing curve with a large enough effect; inconclusive means small, poorly fitted or top-dose-only effect, or effect the other way; inactive means flat fitted curve, though single readings scatter. Where the call is inconclusive, the potency comes from a doubtful curve fit. On the % scale 0 is the no-effect control and ±100 the full control effect; potency means the concentration at half of the fitted maximal effect."}
{"experiment": "qHTS assay for MDR1-selective chemotherapeutics: Primary screen using the drug-selected MDR subline cells KB-V1; further: nearly all actives have a fitted effect of over 60% in size", "conditions": "KB-V1 MDR cells viability, CellTiter-Glo, 72 h; activity change, negative = cytotoxicity: at 46.1 µM (top of the series)", "summary_of_the_method": "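Potencies derive from concentration-effect curves fitted to normalized luminescence (CellTiter-Glo) of KB-V1 cells treated for 72 h at 37 degrees C in phenol-red-free DMEM containing 10% FBS.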"}
{"smiles": "Cc1noc(C)c1S(=O)(=O)N(CCc1ccccc1)Cc1ccccc1", "Potency": "inconclusive: 11.6 µM [cytotoxic, partial curve, poor fit]"}
{"smiles": "O=C(Cn1c(=O)n(CC(=O)N2CCCCC2)c(=O)c2sccc21)NCc1ccccc1", "activity change, negative = cytotoxicity": "inconclusive: 30%"}
{"smiles": "Cc1ccc(Oc2ccc(S(=O)(=O)N3CCOCC3)cc2C(N)=O)cc1C", "Potency": "inconclusive: 18.4 µM [cytotoxic, single point]"}
{"smiles": "COc1cccc(N2CCN(C(=O)c3cn(Cc4ccccc4)nc3-c3cccnc3)CC2)c1", "Potency": "inconclusive: 5.8 µM [cytotoxic, full curve, poor fit]"}
{"smiles": "CCC(C)c1ccc(NC(=S)NCc2ccccc2OC)cc1", "note": "(configuration not stated)", "Potency": "inconclusive: 29.1 µM [cytotoxic, single point]"}
{"smiles": "COc1ccc(NC(=O)CCc2ccccc2)cc1S(=O)(=O)N1CCCCC1", "Potency": "active: 5.17 µM"}
{"smiles": "COc1cc2c(cc1OC)CN(C(=O)/C=C/c1cccc([N+](=O)[O-])c1)CC2", "Potency": "inconclusive: 20.6 µM [cytotoxic, single point]"}
{"smiles": "O=C(CS(=O)(=O)c1cccc2nsnc12)N1CCN(c2cccc(C(F)(F)F)c2)CC1", "Potency": "inconclusive: 29.1 µM [cytotoxic, single point]"}
{"smiles": "CCOc1ccc2nc(NCCNC(=O)Nc3ccccc3)c(C#N)cc2c1", "Potency": "inconclusive: 2.59 µM [cytotoxic, partial curve, poor fit]"}
{"smiles": "CC(C)(C)NC(=O)C(c1ccc(F)cc1)N(Cc1ccco1)C(=O)CCC(=O)Nc1nccs1", "note": "(configuration not stated)", "Potency": "inconclusive: 29.1 µM [cytotoxic, single point]"}
{"smiles": "COC(=O)CCCN=C1SCCN1Cc1ccccc1", "Potency": "inconclusive: 3.66 µM [rising, partial curve, poor fit]"}
{"smiles": "Cc1cc(NC(=O)Cn2cnc3sccc3c2=O)no1", "Potency": "inactive"}
{"smiles": "O=C(COc1ncnc2ccc(Br)cc12)NC1CCCC1", "Potency": "inconclusive: 29.1 µM [cytotoxic, single point]"}
{"smiles": "CCN(CC)S(=O)(=O)c1ccc(S(=O)(=O)N2CCCC2)cc1", "Potency": "inactive"}
{"smiles": "COC(=O)c1[nH]c2ccc(Br)cc2c1NC(=O)CN1CCN(C2CCCCC2)CC1", "Potency": "inconclusive: 20.6 µM [cytotoxic, single point]"}
{"smiles": "O=C(COC(=O)/C=C/c1ccc(Cl)cc1)Nc1ccc2[nH]c(=O)[nH]c2c1", "Potency": "inconclusive: 0.259 µM [rising, full curve, poor fit]"}
{"smiles": "Cc1cc(-c2ccccc2)nc(Oc2ccc(C(C)(C)C)cc2)c1S(C)(=O)=O", "Potency": "inconclusive: 18.4 µM [cytotoxic, partial curve, poor fit]"}
{"smiles": "Cc1ccc(S(=O)(=O)N2CCN(C(=O)c3ccc(OCc4c(C)noc4C)cc3)CC2)cc1", "Potency": "inconclusive: 29.1 µM [cytotoxic, single point]"}
{"smiles": "COC(=O)c1ccccc1NC(=O)C1=C(C)C(=O)OC12CCCCCC2", "Potency": "inactive"}
{"smiles": "Cc1cccc(NS(=O)(=O)c2coc(C(N)=O)c2)c1C", "Potency": "inconclusive: 29.1 µM [rising, single point]"}
{"smiles": "Cc1cc(OCC(=O)NCc2ccncc2)c2c(C)c(C)c(=O)oc2c1", "Potency": "inconclusive: 29.1 µM [cytotoxic, single point]"}
{"smiles": "O=C(O)Cc1ccc(NC2(c3ccccc3)C(=O)c3ccccc3C2=O)cc1", "Potency": "inconclusive: 25.9 µM [rising, single point]"}
{"smiles": "COC(=O)CCS(=O)(=O)c1cc(Cl)ccc1Cl", "Potency": "inactive"}
{"smiles": "COc1cc(CCC(=O)OCC(=O)Nc2ccc(C)cc2Cl)cc(OC)c1OC", "Potency": "inconclusive: 18.4 µM [rising, partial curve]"}
{"smiles": "CN1C(=O)C(C)(C)c2cc(S(=O)(=O)N3CCCC(C(=O)NCc4ccccc4Cl)C3)ccc21", "note": "(configuration not stated)", "Potency": "inconclusive: 23.1 µM [cytotoxic, partial curve, poor fit]"}
{"smiles": "O=C(/C=C/c1ccccc1[N+](=O)[O-])Nc1cc(S(=O)(=O)N2CCOCC2)ccc1N1CCOCC1", "Potency": "inactive"}
{"smiles": "CCOC(=O)CNC(=O)C1COc2ccccc2O1", "note": "(configuration not stated)", "Potency": "inactive"}
{"smiles": "O=S(=O)(NCCC1=CCCCC1)c1c(Cl)cccc1Cl", "Potency": "inconclusive: 18.4 µM [cytotoxic, single point]"}
{"smiles": "C=CCOc1cccc(CNc2ccc3[nH]c(=O)[nH]c3c2)c1", "Potency": "inconclusive: 23.1 µM [cytotoxic, partial curve]"}
{"smiles": "CCN(CC)c1ccc2c(c1)oc(=O)c1c(Cl)cc(=O)oc12", "Potency": "inconclusive: 18.4 µM [cytotoxic, single point]"}
{"smiles": "COc1cccc(C2C(C#N)=C(N)N(N(C)C)C3=C2C(=O)CCC3)c1", "note": "(configuration not stated)", "Potency": "inconclusive: 29.1 µM [rising, partial curve, poor fit]"}
{"smiles": "COc1ccc(OC)c(/C=C2\\Cc3ccccc3C2=O)c1", "Potency": "inactive"}
{"smiles": "CCOC(=O)N1CCN(C(=O)CSc2nc3c([nH]c4ccccc43)c(=O)n2CCOC)CC1", "Potency": "inactive"}
{"smiles": "COc1ccc(C(N)c2csc(Nc3ccc(C(F)(F)F)cn3)n2)cc1", "note": "(configuration not stated)", "Potency": "inactive"}
{"smiles": "COc1cc(OC)cc(C2=Cc3ccccc3C(CC(C)=O)N2c2ccc(C#CC3(O)CCCCC3)cc2)c1", "note": "(configuration not stated)", "Potency": "inconclusive: 18.4 µM [cytotoxic, partial curve, poor fit]"}
{"smiles": "CC(=O)c1ccc(NC(=O)CN2CCC(NC(=O)C3CCCCC3)CC2)cc1", "Potency": "inconclusive: 29.1 µM [cytotoxic, single point]"}
{"smiles": "COc1ccc(Br)cc1/C=N/NS(=O)(=O)c1ccccc1", "Potency": "inconclusive: 20.6 µM [cytotoxic, single point]"}
{"smiles": "CCCc1c(-c2ccc(Cl)cc2)ncn1Cc1cccc(-c2ccccc2)c1", "Potency": "inconclusive: 23.1 µM [cytotoxic, single point]"}
{"smiles": "Cc1cccc(N(Cc2ccccc2)C(=O)CCl)c1", "Potency": "inconclusive: 29.1 µM [cytotoxic, single point]"}
{"smiles": "CC(C)(C)NS(=O)(=O)c1ccc(NC(=O)CS(=O)(=O)Cc2ccccc2)cc1", "Potency": "inconclusive: 23.1 µM [rising, single point]"}
{"smiles": "COCCCNC(=O)CNC(=S)N(Cc1cc(OC)c(OC)c(OC)c1)C1CCCC1", "Potency": "active: 20.6 µM"}
{"smiles": "Cc1ccc([N+](=O)[O-])cc1S(=O)(=O)N1CCn2cccc2C1c1ccccc1", "note": "(configuration not stated)", "Potency": "inactive"}
{"smiles": "CN(C)c1ccc(C=NNc2ccccn2)c(Cl)c1", "Potency": "inactive"}
{"smiles": "CC(=O)c1ccccc1NC(=O)COC(=O)/C=C/c1ccc(C)o1", "Potency": "inconclusive: 23.1 µM [cytotoxic, single point]"}
{"smiles": "COc1ccc(N2CCN(Cc3cccn3-c3nnc(N4CCN(C5CCCCC5)CC4)s3)CC2)cc1", "Potency": "inactive"}
{"smiles": "Cc1csc(NCC(=O)c2c(C)[nH]c3ccccc23)n1", "Potency": "inactive"}
{"smiles": "C=C(C)Cn1c(Sc2nc3ccccc3[nH]2)nc2c1c(=O)[nH]c(=O)n2C", "Potency": "inactive"}
{"smiles": "O=C(CSc1ncn[nH]1)N1N=C2/C(=C/c3ccco3)CCCC2C1c1ccco1", "note": "(configuration not stated)", "Potency": "inconclusive: 29.1 µM [cytotoxic, single point]"}
{"smiles": "CCOc1nc(C)ccc1-c1noc(-c2cccnc2)n1", "Potency": "inconclusive: 8.2 µM [cytotoxic, partial curve, poor fit]"}
{"smiles": "CC1=C(C(=O)N2CCCCCC2)CC(CC(=O)NCCCN(C)C)C(=O)N1Cc1ccc(C(C)(C)C)cc1", "note": "(configuration not stated)", "Potency": "inconclusive: 37.2 µM [cytotoxic, partial curve, poor fit]"}
{"smiles": "COc1cccc(-c2nc(N3CCCCC3C)c3ccccc3n2)c1O", "note": "(configuration not stated)", "Potency": "inactive"}
{"smiles": "COc1nccc(-c2ccc(F)cc2)c1C#N", "Potency": "inconclusive: 18.4 µM [cytotoxic, single point]"}
{"smiles": "CC(C)Cc1nnc(NC(=O)C2CCN(C(=O)c3ccc(F)cc3)CC2)s1", "Potency": "inactive"}
{"smiles": "FC(F)(F)c1nnc2ccc(N3CCCCCC3)nn12", "Potency": "inconclusive: 16.4 µM [cytotoxic, partial curve, poor fit]"}
{"smiles": "O=C(CCn1c2c(c3ccccc31)CCCC2)NNC(=O)c1cccc([N+](=O)[O-])c1", "Potency": "inconclusive: 25.9 µM [cytotoxic, partial curve, poor fit]"}
{"smiles": "CC1CCN(c2cc(N3CCN(C(=O)c4ccc(F)c(F)c4)CC3)c([N+](=O)[O-])cc2F)CC1", "Potency": "inconclusive: 13 µM [cytotoxic, partial curve]"}
{"smiles": "CC1(C)C([N+](=O)[O-])C(c2ccc(F)cc2)NC(c2ccc(F)cc2)C1[N+](=O)[O-]", "note": "(configuration not stated)", "Potency": "inconclusive: 13 µM [cytotoxic, partial curve, poor fit]"}
{"smiles": "COc1ccc(O)c(C(=O)CC(=O)c2ccncc2)c1", "Potency": "active: 9.2 µM"}
{"smiles": "Cc1ccc(N2C(=O)N(Cc3cc(=O)n4ccccc4n3)c3ccccc3S2(=O)=O)cc1Cl", "Potency": "inconclusive: 14.6 µM [cytotoxic, single point]"}
{"smiles": "Cc1ccc(S(=O)(=O)CCSC(=N)N)cc1", "Potency": "inactive"}
{"smiles": "CNC(=O)CC1C(=O)N(Cc2ccccc2)C(=S)N1NC(=O)c1cccc(F)c1", "note": "(configuration not stated)", "Potency": "active: 20.6 µM"}
{"smiles": "COc1ccccc1Nc1nnc(SCc2cc(=O)n3ccsc3n2)s1", "Potency": "inconclusive: 10.3 µM [cytotoxic, partial curve, poor fit]"}
{"smiles": "CCc1ccc(N2CC(O)(c3cccs3)[N+]3=C2SCCC3)cc1", "note": "(configuration not stated)", "Potency": "inconclusive: 25.9 µM [cytotoxic, single point]"}
{"smiles": "Fc1ccc(-n2ncc3c(N4CCCCCC4)ncnc32)cc1", "Potency": "inconclusive: 29.1 µM [cytotoxic, single point]"}
{"smiles": "OCC#CCSc1nnc(-c2ccc(Br)cc2)o1", "Potency": "inconclusive: 29.1 µM [cytotoxic, single point]"}
{"smiles": "CCCN(CCC)S(=O)(=O)c1cccc(C(=O)N=c2sccn2C)c1", "Potency": "inconclusive: 7.31 µM [cytotoxic, partial curve]"}
{"smiles": "COc1cccc(OCc2ccc(Cn3nc(NC(=O)NCCc4ccc(OC)c(OC)c4)c4ccccc43)cc2)c1", "Potency": "inactive"}
